Test results reported in patent US4839465A (Sterling Drug Inc., priority 1987, dated 1989).
For some assays here: Strings that start with PEPTIDE1 are HELM notation: dots part the residues, brackets hold end groups and non-standard residues.

Columns and labels:
[1] = Boc solid-phase peptide synthesis; chloromethylated styrene-divinylbenzene (1%) copolymer (Bio-Beads, 200-400 mesh, Bio-Rad); Boc-Phe-OBzl-resin, 0.68 mmol; dicyclohexylcarbodiimide with N-hydroxysuccinimide or 1-hydroxybenzotriazole; mi; settings: whole synthesis, free base, phosphate, acetate or hydrochloride salts
[2] = coupling step, free base, phosphate, acetate or hydrochloride salts

Question: With Boc--trp--Phe--trp--Leu--Met--NH2 as the substance, how does the step yield (peptide synthesis; [2]) read?
Answer: 60% yield

Question: With Z--Pro--trp--Phe--trp--NHNH2 as the substance, how does the step yield (peptide synthesis; late stage modification step, free base, phosphate, acetate or hydrochloride salts) read?
Answer: 83% yield

Question: With H--Phe--tpi--Leu--Phe--NH2 as the substance, how does the step yield (peptide synthesis; late stage modification step, hydrochloride salt) read?
Answer: 95% yield

Question: Which step yield (peptide synthesis; late stage modification step, phosphate salt (1:1) hemihydrate methanol solvate (2:1)) does the source give for “PEPTIDE1{[D-Tpi].F.[dW].L.F.[am]}$$$$V2.0” here?
Answer: 39% yield

Question: For Z--Pro--trp--Phe--trp--Leu--NH2, which step yield (peptide synthesis; [2]) is on record?
Answer: 71% yield

Question: Which step yield (peptide synthesis; late stage modification step, phosphate salt) does the source give for PEPTIDE1{[dW].F.[dW].L.F.[am]}$$$$V2.0 here?
Answer: 38% yield

Question: Which step yield (peptide synthesis; [2]) does the source give for Z--Pro--trp--Phe--trp--OCH3 here?
Answer: 42% yield

Question: Which step yield (peptide synthesis; late stage modification step, phosphate salt (1:1) hydrate (2:7)) does the source give for “PEPTIDE1{[D-Tpi].F.[dW].L.M.[am]}$$$$V2.0” here?
Answer: 29% yield

Question: Which crude yield [1] does the source give for “Boc--Pro--trp--Phe--trp--Leu--Phe--OBzl-resin” here?
Answer: 96% yield

Question: With PEPTIDE1{P.[dW].F.[dW].L.[am]}$$$$V2.0 as the substance, how does the step yield (peptide synthesis; late stage modification step, triacetate hydrate salt-solvate) read?
Answer: 36% yield

Question: With Boc--trp--Phe--trp--Leu--Phe--NH2 as the substance, how does the step yield (peptide synthesis; [2]) read?
Answer: 71% yield

Question: With Boc--tpi--Phe--trp--Leu--Met--NH2 as the substance, how does the step yield (peptide synthesis; coupling step, free base, phosphate, acetate or hydrochloride salts, run 1) read?
Answer: 57.5% yield

Question: What about the step yield (peptide synthesis; coupling step, free base, phosphate, acetate or hydrochloride salts, run 2) of the same substance?
Answer: 93.1% yield

Question: Which step yield (peptide synthesis; late stage modification step, phosphate salt (1:1) acetic acid solvate (1:2)) does the source give for “PEPTIDE1{P.[dW].F.[D-Tpi].L.F.[am]}$$$$V2.0” here?
Answer: 80% yield

Question: For Boc--Phe--trp--Leu--Met--NH2, which step yield (peptide synthesis; [2]) is on record?
Answer: 76% yield

Question: Which step yield (peptide synthesis; [2]) does the source give for Boc--Pro--trp--Phe--tpi--Leu--Phe--NH2 here?
Answer: 23% yield

Question: For PEPTIDE1{[dW].F.[dW].L.M.[am]}$$$$V2.0, which step yield (peptide synthesis; late stage modification step, free base) is on record?
Answer: 82% yield

Question: With PEPTIDE1{[Tpi].F.[dW].L.M.[am]}$$$$V2.0 as the substance, how does the step yield (peptide synthesis; late stage modification step, phosphate salt (1:1) acetic acid solvate (4:7)) read?
Answer: 37.4% yield

Question: For Boc--Phe--tpi--Leu--Phe--NH2, which step yield (peptide synthesis; [2]) is on record?
Answer: 69.4% yield

Question: For Boc--Pro--trp--Phe--trp--Leu--Phe--NH2, which isolated yield (peptide synthesis; whole synthesis, free base, phosphate, acetate or hydrochloride salts) is on record?
Answer: 13% yield
